Reference: PubChem BioAssay AID248 (DTP/NCI, 2004)
The list is a part of this screen's results and no random one: it gathers tests that were run many times, whatever their T/C, doses with no T/C, and many T/C values between a quarter and a half above the control. Further doses and runs are listed elsewhere. T/C: endpoint of the treated group in % of that of the vehicle group. Some entries give survivors of the animals treated and no T/C: the source files T/C as zero there, which appears to mark a toxic dose or a test without result, not a measured value. Some doses without a T/C left all or most animals alive at the check, yet need not have been tolerated: survival well below the control is almost never listed, so the zero probably covers shortened survival too. Counts of survivors are from the toxicity check (mostly the fifth day) where no day follows; animals may have died later. Schedules are NCI's codes, taken here to give the interval after Q, in days (D) or hours (H), and the number of doses after X. Some entries hold several experiments; the values are given in rising order. Where survival is the endpoint, this PubChem deposit counts one and a half times the control or more as active, and values a quarter to a half above the control carry no call in these data; other NCI protocols may use other cut-offs. Some T/C values carry the count of animals alive at the toxicity check (mostly the fifth day); where none is given, no animal had died by that day.

Tested on: L1210 leukemia ip in BDF1 mice, survival T/C
Experiment: NCI In Vivo Anticancer Drug Screen. Data for tumor model L1210 Leukemia (intraperitoneal) in B6D2F1 (BDF1) mice
Details: T/C endpoint: mean survival time, higher T/C = longer survival
[1] = dose: 100.0 mg/kg/injection, schedule: Q01DX001 (ip), vehicle: carboxymethylcellulose (CMC)
[2] = dose: 400.0 mg/kg/injection, schedule: Q04DX003 (ip), vehicle: Klucel (hydroxypropylcellulose) (HPC)
[3] = dose: 400.0 mg/kg/injection, schedule: Q04DX003 (ip), vehicle: saline
[4] = dose: 400.0 mg/kg/injection, schedule: Q01DX009 (ip), vehicle: saline
[5] = dose: 100.0 mg/kg/injection, schedule: Q01DX009 (ip), vehicle: saline
[6] = dose: 200.0 mg/kg/injection, schedule: Q01DX001 (ip), vehicle: saline

CCC1CC(O)c2c(O)c3c(c(O)c2C1O)C(=O)c1cccc(O)c1C3=O (stereo unspecified) (tested in a mixture with another compound)
survivor count (dose: 1.0 mg/kg/injection, schedule: Q01DX015 (ip), vehicle: carboxymethylcellulose (CMC)): 5 of 6 | survivor count (dose: 2.0 mg/kg/injection, schedule: Q01DX015 (ip), vehicle: carboxymethylcellulose (CMC)): 4 of 6 | survivor count (dose: 3.12 mg/kg/injection, schedule: Q01DX015 (ip), vehicle: carboxymethylcellulose (CMC)): 1 of 6 | survivor count (dose: 6.25 mg/kg/injection, schedule: Q01DX001 (ip), vehicle: carboxymethylcellulose (CMC)): 2 of 6 | survivor count (dose: 6.25 mg/kg/injection, schedule: Q01DX015 (ip), vehicle: carboxymethylcellulose (CMC)): 0 of 6 | survivor count (dose: 12.5 mg/kg/injection, schedule: Q01DX001 (ip), vehicle: carboxymethylcellulose (CMC)): 0 of 6 | survivor count (dose: 12.5 mg/kg/injection, schedule: Q01DX015 (ip), vehicle: carboxymethylcellulose (CMC)): 0 of 6 | survivor count (dose: 25.0 mg/kg/injection, schedule: Q01DX001 (ip), vehicle: carboxymethylcellulose (CMC)): 0 of 6 | survivor count (dose: 25.0 mg/kg/injection, schedule: Q01DX015 (ip), vehicle: carboxymethylcellulose (CMC)): 0 of 6 | survivor count (dose: 50.0 mg/kg/injection, schedule: Q01DX001 (ip), vehicle: carboxymethylcellulose (CMC)): 0 of 4 | survivor count (dose: 50.0 mg/kg/injection, schedule: Q01DX015 (ip), vehicle: carboxymethylcellulose (CMC)): 0 of 6 | survivor count [1]: 0 of 4 | survivor count (dose: 100.0 mg/kg/injection, schedule: Q01DX015 (ip), vehicle: carboxymethylcellulose (CMC)): 0 of 6 | survivor count (dose: 200.0 mg/kg/injection, schedule: Q01DX001 (ip), vehicle: carboxymethylcellulose (CMC)): 0 of 4 | survivor count (dose: 200.0 mg/kg/injection, schedule: Q01DX015 (ip), vehicle: carboxymethylcellulose (CMC)): 0 of 6 | survivor count (dose: 400.0 mg/kg/injection, schedule: Q01DX001 (ip), vehicle: carboxymethylcellulose (CMC)): 0 of 4 | survivor count (dose: 400.0 mg/kg/injection, schedule: Q01DX015 (ip), vehicle: carboxymethylcellulose (CMC)): 0 of 6

O=C(CCCl)OCC#CCOC(=O)CCCl
survivor count (dose: 400.0 mg/kg/injection, schedule: Q01DX009 (ip), vehicle: saline with Tween-80): 4 of 6

COc1ccc(OC)c(C2(O)C=C(C)C(=O)C=C2C)c1 (stereo unspecified)
survivor count (dose: 75.0 mg/kg/injection, schedule: Q01DX001 (ip), vehicle: Klucel (hydroxypropylcellulose) (HPC)): 6 of 6

CC(NC(=O)OCc1ccccc1)C(=O)Oc1cc(Cl)c(Cl)cc1Cl (stereo unspecified)
survivor count (dose: 100.0 mg/kg/injection, schedule: Q04DX003 (ip), vehicle: Klucel (hydroxypropylcellulose) (HPC)): 6 of 6 | survivor count [2]: 6 of 6 | survivor count [3]: 6 of 6

CN(C)C1=NC(=O)C(c2ccccc2)O1 (stereo unspecified)
survivor count (dose: 25.0 mg/kg/injection, schedule: Q04DX003 (ip), vehicle: saline): 4 of 4 | survivor count (dose: 100.0 mg/kg/injection, schedule: Q04DX003 (ip), vehicle: saline): 3 of 4 | survivor count [4]: 1 of 6

CC(C)N(Cl)S(C)(=O)=O
survivor count (dose: 200.0 mg/kg/injection, schedule: Q04DX003 (ip), vehicle: saline): 1 of 3 | survivor count [3]: 0 of 3

NS(=O)(=O)c1ccc(S(=O)(=O)N2CCCCC2)cc1
survivor count (dose: 400.0 mg/kg/injection, schedule: Q01DX009 (ip), vehicle: Klucel (hydroxypropylcellulose) (HPC)): 5 of 6

O=C1CC(c2ccc(Cl)cc2)C(=O)O1 (stereo unspecified)
survivor count (dose: 400.0 mg/kg/injection, schedule: Q04DX003 (ip), vehicle: alcohol): 2 of 6

O=C(O)CCC(=O)Oc1ccccc1
survivor count (dose: 400.0 mg/kg/injection, schedule: Q04DX003 (ip), vehicle: other): 1 of 6

Nc1cccc(NC(=O)Nc2ccccc2)c1
survivor count (dose: 200.0 mg/kg/injection, schedule: Q04DX002 (ip), vehicle: Klucel (hydroxypropylcellulose) (HPC)): 3 of 3

CCCCOC(=O)/C=C/C(=O)[O][Sn]([CH2]CCC)([CH2]CCC)[O]C(=O)/C=C/C(=O)OCCCC
survivor count (dose: 100.0 mg/kg/injection, schedule: Q01DX009 (sc), vehicle: olive oil, sesame oil, peanut oil): 2 of 3 | survivor count (dose: 200.0 mg/kg/injection, schedule: Q01DX009 (sc), vehicle: olive oil, sesame oil, peanut oil): 0 of 3 | survivor count (dose: 400.0 mg/kg/injection, schedule: Q01DX009 (sc), vehicle: olive oil, sesame oil, peanut oil): 0 of 3 | survivor count (dose: 400.0 mg/kg/injection, schedule: Q04DX002 (sc), vehicle: olive oil, sesame oil, peanut oil): 3 of 3

CCSc1ncnc2c1ncn2CN1CCOCC1
T/C (dose: 30.0 mg/kg/injection, schedule: Q01DX009 (ip), vehicle: saline): 144 % of control | T/C (dose: 60.0 mg/kg/injection, schedule: Q01DX009 (ip), vehicle: saline): 141 % of control | T/C (dose: 88.0 mg/kg/injection, schedule: Q01DX009 (ip), vehicle: Klucel (hydroxypropylcellulose) (HPC)): 125 % of control | T/C [5]: 127 and 148 % of control | T/C (dose: 133.0 mg/kg/injection, schedule: Q01DX009 (ip), vehicle: Klucel (hydroxypropylcellulose) (HPC)): 146 % of control | T/C (dose: 150.0 mg/kg/injection, schedule: Q01DX009 (ip), vehicle: saline): 126 % of control | T/C (dose: 225.0 mg/kg/injection, schedule: Q01DX009 (ip), vehicle: saline): 142 % of control [5 of 6 alive] | survivor count (dose: 300.0 mg/kg/injection, schedule: Q01DX009 (ip), vehicle: Klucel (hydroxypropylcellulose) (HPC)): 1 of 6 | T/C (dose: 330.0 mg/kg/injection, schedule: Q04DX003 (ip), vehicle: saline): 134 % of control | T/C (dose: 337.5 mg/kg/injection, schedule: Q01DX009 (ip), vehicle: saline): 132 % of control | survivor count (dose: 340.0 mg/kg/injection, schedule: Q01DX009 (ip), vehicle: saline): 1 of 6 | survivor count [2]: 0 of 6 | survivor count (dose: 500.0 mg/kg/injection, schedule: Q01DX009 (ip), vehicle: saline): 3 of 6

C=CCOP(=O)(N1CC1C)N1CC1C (stereo unspecified)
T/C (dose: 89.0 mg/kg/injection, schedule: Q01DX001 (ip), vehicle: saline): 125 % of control | T/C (dose: 100.0 mg/kg/injection, schedule: Q01DX001 (ip), vehicle: saline): 130 % of control | survivor count (dose: 100.0 mg/kg/injection, schedule: Q01DX015 (ip), vehicle: saline): 5 of 6 | T/C (dose: 133.0 mg/kg/injection, schedule: Q01DX001 (ip), vehicle: saline): 125 and 132 % of control | T/C [6]: 141 and 145 % of control | T/C (dose: 300.0 mg/kg/injection, schedule: Q01DX001 (ip), vehicle: saline): 133 % of control

C/C(=N\[N+](C)(C)C)c1cccc(C)n1
survivor count [6]: 1 of 6 | survivor count (dose: 400.0 mg/kg/injection, schedule: Q01DX001 (ip), vehicle: saline): 0 of 6

CC1(C(N)=O)CC2C=CC1C2 (stereo unspecified)
T/C [1]: 148 % of control

Cc1ccc(C(O)C(=O)O)cc1 (stereo unspecified)
survivor count (dose: 300.0 mg/kg/injection, schedule: Q01DX001 (ip), vehicle: acetone): 1 of 6

N#CCCCC[P+](c1ccccc1)(c1ccccc1)c1ccccc1
survivor count [5]: 0 of 6 and 1 of 6 | survivor count (dose: 200.0 mg/kg/injection, schedule: Q01DX009 (ip), vehicle: saline): 0 of 6 | survivor count [4]: 0 of 6
